Positions count from the first letter of the chain named. Names and notes keep the numbering of the source. No constants are given. Whether binding was seen depends on the method and setting. Some binding calls cover weakened binding; strength is not graded here. For some assays here: Tags and fused reporters may be left off the sequences shown.
T1: rhesus CD11a (rhesus) (UniProt H9Z8N3)
T1 sequence: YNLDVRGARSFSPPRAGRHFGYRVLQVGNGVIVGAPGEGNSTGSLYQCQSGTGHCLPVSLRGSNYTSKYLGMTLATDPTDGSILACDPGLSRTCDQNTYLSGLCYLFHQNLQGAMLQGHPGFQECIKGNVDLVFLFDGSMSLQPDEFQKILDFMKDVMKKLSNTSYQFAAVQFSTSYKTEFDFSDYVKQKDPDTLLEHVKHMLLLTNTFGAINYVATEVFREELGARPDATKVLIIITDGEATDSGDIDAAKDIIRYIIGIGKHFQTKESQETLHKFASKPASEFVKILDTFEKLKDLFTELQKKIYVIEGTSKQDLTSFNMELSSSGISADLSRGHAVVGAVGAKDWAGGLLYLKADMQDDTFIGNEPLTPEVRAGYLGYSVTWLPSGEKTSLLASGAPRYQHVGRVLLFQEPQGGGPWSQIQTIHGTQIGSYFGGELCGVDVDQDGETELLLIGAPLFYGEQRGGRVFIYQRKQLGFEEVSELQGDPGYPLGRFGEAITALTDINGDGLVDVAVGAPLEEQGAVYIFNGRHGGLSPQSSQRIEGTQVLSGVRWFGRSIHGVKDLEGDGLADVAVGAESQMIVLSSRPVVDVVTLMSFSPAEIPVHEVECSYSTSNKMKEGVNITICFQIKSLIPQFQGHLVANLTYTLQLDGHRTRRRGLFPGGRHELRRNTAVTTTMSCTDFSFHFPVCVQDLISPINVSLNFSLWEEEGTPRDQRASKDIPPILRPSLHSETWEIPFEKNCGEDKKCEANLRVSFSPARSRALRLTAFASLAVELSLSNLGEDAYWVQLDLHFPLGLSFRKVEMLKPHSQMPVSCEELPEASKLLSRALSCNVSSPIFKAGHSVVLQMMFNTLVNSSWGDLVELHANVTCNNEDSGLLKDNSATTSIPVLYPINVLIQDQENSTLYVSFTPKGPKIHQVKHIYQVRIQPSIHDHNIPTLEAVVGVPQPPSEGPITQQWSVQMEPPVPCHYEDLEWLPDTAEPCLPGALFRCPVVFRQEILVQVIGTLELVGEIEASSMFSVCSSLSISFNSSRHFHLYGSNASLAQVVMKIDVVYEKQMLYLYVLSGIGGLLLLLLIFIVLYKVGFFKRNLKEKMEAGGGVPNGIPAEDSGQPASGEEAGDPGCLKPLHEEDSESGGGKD

B1: rhesus-binding MHM24 (RhIgG1), variant H2C12 (antibody, V domains shown)
VH: EVQLVESGGGLVQPGGSLRLSCAASGYSFTGHWMNWVRQAPGKGLEWVGMIAPASSSTRYNQKFKDRFTISVDKSKNTLYLQMNSLRAEDTAVYYCARGIYFYGTTYFDYWGQGTLVTVSS
VL: DIQMTQSPSSLSASVGDRVTITCRASKTISKYLAWYQQKPGKAPKLLIYSGSTLQSGVPSRFSGSGSGTDFTLTISSLQPEDFATYYCQQHNEYPLTFGQGTKVEIKR
B2: HisL91Ala variant IgG1 (antibody, V domains shown)
VH: B1 VH with A52H, A54S, S55D, S57E
VL: B1 VL with H91A
B3: SerH55Asn variant IgG1 (antibody, V domains shown)
VH: B1 VH with A52H, A54S, S55D, S56N, S57E
VL: DIQMTQSPSSLSASVGDRVTITCRASKTISKYLAWYQQKPGKAPKLLIYSGSTLQSGVPSRFSGSGSGTDFTLTISSLQPEDFATYYCQQHNEYPLTFGQGTKVEIK
B4: L2 variant IgG1 (antibody, V domains shown)
VH: B1 VH with A52H, A54S, S55D, S57E
VL: B1 VL with S50A, S52A, T53A
B5: ThrH100bAla variant IgG1 (antibody, V domains shown)
VH: B1 VH with A52H, A54S, S55D, S57E, T106A
VL: B3 VL
B6: H3B variant IgG1 (antibody, V domains shown)
VH: B1 VH with A52H, A54S, S55D, S57E, T105A, T106A, Y107A
VL: B3 VL
B7: LysH73Ala variant IgG1 (antibody, V domains shown)
VH: B1 VH with A52H, A54S, S55D, S57E, K74A
VL: B3 VL
B8: HisH32Ala variant IgG1 (antibody, V domains shown)
VH: B1 VH with H32A, A52H, A54S, S55D, S57E
VL: B3 VL
B9: AspH54Glu variant IgG1 (antibody, V domains shown)
VH: B1 VH with A52H, A54S, S55E, S57E
VL: B3 VL
B10: H1 variant IgG1 (antibody, V domains shown)
VH: B1 VH with S28A, T30A, H32A, A52H, A54S, S55D, S57E
VL: B3 VL
B11: AspH54His variant IgG1 (antibody, V domains shown)
VH: B1 VH with A52H, A54S, S55H, S57E
VL: B3 VL
B12: SerH28Ala variant IgG1 (antibody, V domains shown)
VH: B1 VH with S28A, A52H, A54S, S55D, S57E
VL: B3 VL
B13: HisH52Ser variant IgG1 (antibody, V domains shown)
VH: B1 VH with A52S, A54S, S55D, S57E
VL: B3 VL
B14: TyrH100cAla variant IgG1 (antibody, V domains shown)
VH: B1 VH with A52H, A54S, S55D, S57E, Y107A
VL: B3 VL
B15: ThrH100aAla variant IgG1 (antibody, V domains shown)
VH: B1 VH with A52H, A54S, S55D, S57E, T105A
VL: B3 VL
B16: AspH54Arg variant IgG1 (antibody, V domains shown)
VH: B1 VH with A52H, A54S, S55R, S57E
VL: B3 VL
B17: AspH54Met variant IgG1 (antibody, V domains shown)
VH: B1 VH with A52H, A54S, S55M, S57E
VL: B3 VL
B18: TrpH33Ala variant IgG1 (antibody, V domains shown)
VH: B1 VH with W33A, A52H, A54S, S55D, S57E
VL: B3 VL
B19: AspH54Leu variant IgG1 (antibody, V domains shown)
VH: B1 VH with A52H, A54S, S55L, S57E
VL: B3 VL
B20: TyrH97Ala variant IgG1 (antibody, V domains shown)
VH: B1 VH with A52H, A54S, S55D, S57E, Y101A
VL: B3 VL
B21: H2B variant IgG1 (antibody, V domains shown)
VH: B1 VH with A52H, A54S, S55A, S57A, R59A
VL: B3 VL
B22: TyrL94Ala variant IgG1 (antibody, V domains shown)
VH: B1 VH with A52H, A54S, S55D, S57E
VL: B1 VL with Y94A
B23: L3 variant IgG1 (antibody, V domains shown)
VH: B1 VH with A52H, A54S, S55D, S57E
VL: B1 VL with N92A, E93A, Y94A
B24: AspH54Thr variant IgG1 (antibody, V domains shown)
VH: B1 VH with A52H, A54S, S55T, S57E
VL: B3 VL
B25: TyrH99Ala variant IgG1 (antibody, V domains shown)
VH: B1 VH with A52H, A54S, S55D, S57E, Y103A
VL: B3 VL

Target: T1, rhesus CD11a (rhesus)
Assay: saturation binding, rhesus leukocytes

| binding | Binder |
| --- | --- |
| binds | B1 |

Target: T1, rhesus CD11a (rhesus)
Assay: binding to rhesus peripheral blood lymphocytes

| Binder | binding |
| --- | --- |
| B2 | no binding (tested: greater than 10-fold weaker than HuIgG1) |
| B3 | no binding (tested: greater than 10-fold weaker than HuIgG1) |
| B4 | no binding (tested: greater than 10-fold weaker than HuIgG1) |
| B5 | no binding (tested: greater than 10-fold weaker than HuIgG1) |
| B6 | no binding (tested: greater than 10-fold weaker than HuIgG1) |
| B7 | no binding (tested: greater than 10-fold weaker than HuIgG1) |
| B8 | no binding (tested: greater than 10-fold weaker than HuIgG1) |
| B9 | no binding (tested: Variant EC50/HuIgG1 EC50 >25) |
| B10 | no binding (tested: greater than 10-fold weaker than HuIgG1) |
| B11 | no binding (tested: Variant EC50/HuIgG1 EC50 >25) |
| B12 | no binding (tested: greater than 10-fold weaker than HuIgG1) |
| B13 | no binding (tested: greater than 10-fold weaker than HuIgG1) |
| B14 | no binding (tested: greater than 10-fold weaker than HuIgG1) |
| B15 | no binding (tested: greater than 10-fold weaker than HuIgG1) |
| B16 | no binding (tested: Variant EC50/HuIgG1 EC50 >25) |
| B17 | no binding (tested: Variant EC50/HuIgG1 EC50 >25) |
| B18 | no binding (tested: greater than 10-fold weaker than HuIgG1) |
| B19 | no binding (tested: Variant EC50/HuIgG1 EC50 >25) |
| B20 | no binding (tested: greater than 10-fold weaker than HuIgG1) |
| B21 | no binding (tested: greater than 10-fold weaker than HuIgG1) |
| B22 | no binding (tested: greater than 10-fold weaker than HuIgG1) |
| B23 | no binding (tested: greater than 10-fold weaker than HuIgG1) |
| B24 | no binding (tested: Variant EC50/HuIgG1 EC50 >25) |
| B25 | no binding (tested: greater than 10-fold weaker than HuIgG1) |

Target: T1, rhesus CD11a (rhesus)
Assay: saturation binding with and without 1 mg/ml human IgG1

| binding | Binder |
| --- | --- |
| binds | B1 |

Source: patent EP1516629B1
